From patent US12605350B2, “Composition for preventing, ameliorating, or treating disease caused by nitration of tyrosine in proteins comprising tyrosine as effective component” (INDUSTRY-ACADEMIC COOPERATION FOUNDATION GYEONGSANG …, priority 2020, dated 2026) come the findings set out here.

Data set [1] concerns high-fat diet mouse model of type 2 diabetes. Nature of the data set: high-fat diet mouse model of type 2 diabetes: bodyweight, food intake amount, blood glucose. In kind it is in vivo. The conditions noted are these: 3 months. The protocol: Twenty-seven C57BL/6 male mice (3-week old) were acclimated to the breeding condition for 1 week. […] Blood glucose was measured every week.

Data set [2] is described as follows: bodyweight and food intake, chronic immobilization stress with D-Tyr diet. In kind it is in vivo, mouse. The conditions noted are these: D-Tyr-containing diet (181 mg D-Tyr/kg AIN-93G), chronic stress 14 days.
Data set [3] in a line: bodyweight and food intake, chronic immobilization stress group fed with tyrosine-diet. It is filed as in vivo, mouse. The conditions noted are these: tyrosine-supplemented diet (181.2 mg/kg) vs normal diet, CIS 15 days.

Take `N[C@@H](Cc1ccc(O)cc1)C(=O)O` [L-tyrosine]: in data set [1] (HFD+L-Tyr (181 mg of L-tyrosine/kg) vs HFD), the bodyweight change result was “similar”. Besides, the food intake amount result in data set [1] (ND, HFD, HFD+L-Tyr (181 mg of L-tyrosine/kg)) was “almost no difference among different test groups”.

Consider `N[C@@H](Cc1ccc(O)cc1)C(=O)O` [tyrosine], for which, in data set [2], the bodyweight result is “no difference in bodyweight and food intake amount”; the food intake amount entry is “no difference in bodyweight and food intake amount”. Besides, in data set [3], the change in bodyweight result is recorded as “no change in bodyweight” and the food intake amount result is on record as “no change in bodyweight or any difference in food intake amount”.
